Chains of the proteins cited; added tags and fusions are not shown. Where a name states a change or a piece, a line headed by the entry shows the natural chain unless it says otherwise. A line that says so, or that is headed by a name, gives the form on record, which may keep a tag or linker.
DP-1/E2F-1 (Homo sapiens), one chain, as listed by the source, chain 1 of 2: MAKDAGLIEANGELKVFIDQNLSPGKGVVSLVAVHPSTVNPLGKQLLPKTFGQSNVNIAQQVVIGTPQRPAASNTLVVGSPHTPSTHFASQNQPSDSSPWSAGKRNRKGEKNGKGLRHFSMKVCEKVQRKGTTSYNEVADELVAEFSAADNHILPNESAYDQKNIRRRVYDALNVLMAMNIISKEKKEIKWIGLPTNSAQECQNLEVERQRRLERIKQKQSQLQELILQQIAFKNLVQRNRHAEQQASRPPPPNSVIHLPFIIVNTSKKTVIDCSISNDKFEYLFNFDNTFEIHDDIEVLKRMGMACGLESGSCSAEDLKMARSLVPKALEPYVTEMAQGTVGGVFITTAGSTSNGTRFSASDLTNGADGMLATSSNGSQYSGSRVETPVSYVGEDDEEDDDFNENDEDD
DP-1/E2F-1 (Homo sapiens), one chain, as listed by the source, chain 2 of 2: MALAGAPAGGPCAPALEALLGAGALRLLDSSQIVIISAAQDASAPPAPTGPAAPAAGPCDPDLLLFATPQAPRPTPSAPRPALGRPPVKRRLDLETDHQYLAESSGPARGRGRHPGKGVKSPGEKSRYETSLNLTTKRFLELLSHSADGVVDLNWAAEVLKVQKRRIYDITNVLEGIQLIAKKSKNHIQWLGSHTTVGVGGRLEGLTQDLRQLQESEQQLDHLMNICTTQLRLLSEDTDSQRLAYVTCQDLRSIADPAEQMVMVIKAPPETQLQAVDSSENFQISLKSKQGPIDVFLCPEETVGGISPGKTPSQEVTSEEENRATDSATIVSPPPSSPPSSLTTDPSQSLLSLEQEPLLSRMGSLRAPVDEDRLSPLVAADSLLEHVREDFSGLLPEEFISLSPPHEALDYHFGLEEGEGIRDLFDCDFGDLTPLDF
DP-1/E2F-4 (Homo sapiens), one chain, as listed by the source, chain 2 of 2: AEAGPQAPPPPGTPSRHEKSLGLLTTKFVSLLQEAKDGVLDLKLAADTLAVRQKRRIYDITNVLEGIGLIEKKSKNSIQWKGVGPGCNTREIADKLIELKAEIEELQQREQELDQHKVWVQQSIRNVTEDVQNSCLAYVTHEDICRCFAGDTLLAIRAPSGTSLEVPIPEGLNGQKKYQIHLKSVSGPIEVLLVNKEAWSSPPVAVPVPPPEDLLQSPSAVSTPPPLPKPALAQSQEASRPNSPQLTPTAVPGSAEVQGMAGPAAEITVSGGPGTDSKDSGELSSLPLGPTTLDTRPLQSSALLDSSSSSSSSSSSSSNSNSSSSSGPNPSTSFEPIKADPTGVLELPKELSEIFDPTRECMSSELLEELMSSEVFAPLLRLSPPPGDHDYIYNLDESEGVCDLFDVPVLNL
DP-1/E2F-3 (Homo sapiens), one chain, as listed by the source, chain 2 of 2: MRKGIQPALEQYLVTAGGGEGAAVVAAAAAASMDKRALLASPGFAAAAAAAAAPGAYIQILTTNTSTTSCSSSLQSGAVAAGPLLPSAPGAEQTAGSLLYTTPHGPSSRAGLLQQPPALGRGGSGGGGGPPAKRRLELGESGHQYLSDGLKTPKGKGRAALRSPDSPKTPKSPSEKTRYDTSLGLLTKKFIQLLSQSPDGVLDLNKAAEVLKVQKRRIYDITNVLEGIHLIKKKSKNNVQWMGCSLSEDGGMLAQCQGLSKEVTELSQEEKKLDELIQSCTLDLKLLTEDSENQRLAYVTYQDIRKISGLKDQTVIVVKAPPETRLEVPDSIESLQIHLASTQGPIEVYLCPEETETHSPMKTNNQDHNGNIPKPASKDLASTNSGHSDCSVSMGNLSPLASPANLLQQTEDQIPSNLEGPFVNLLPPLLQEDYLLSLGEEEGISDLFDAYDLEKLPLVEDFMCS

In patent US6380170:

Tests used:
[1] = system: CDF-1 (CDE-CHR binding factor) (Homo sapiens); assay: competition with a labelled probe; settings: protein in an extract, variant of cdc25C-wt CDE-CHR
[2] = system: CDF-1 (CDE-CHR binding factor) (Homo sapiens); assay: EMSA; settings: protein in an extract
[3] = system: CDF-1 (CDE-CHR binding factor) (Homo sapiens); assay: footprint; settings: in vitro DMS; four G in CDE and two A in CHR protected; protein in an extract
[4] = system: DP-1/E2F-1 (Homo sapiens); assay: EMSA; settings: protein in an extract, protein details: HeLa nuclear extract
[5] = system: DP-1/E2F-3 (Homo sapiens); assay: EMSA; settings: protein in an extract, protein details: HeLa nuclear extract
[6] = system: DP-1/E2F-4 (Homo sapiens); assay: EMSA; settings: protein in an extract, protein details: HeLa nuclear extract
[7] = region 4 change does not affect E2F, variant of B-myb E2FBS-CHR
[8] = high efficiency, variant of cdc25C-wt CDE-CHR

“ACTGGGCTGGCGGAAGGTGGTCATGGTCAA (double strand) [cdc25C-6/-3 (mCHR)]”: binds more weakly ([1]; diminished EMSA competition).

“ACTGGGCTGGCGGAAGGTTTGAAGGTTCAA (double strand) [cdc25C-1/+2]”: binds ([1]; EMSA competition as wild type).

“ACTGGGCTGGCGGAAGGTTTGAATGGTCAA (double strand) [cdc25C-wt CDE-CHR]”: binds ([2]; HeLa nuclear extract); binds [3].

“ACTGGGCTGGCGGAAGGTTTGACTGGTCAA (double strand) [cdc25C-2]”: binds more weakly ([1]; diminished EMSA competition).

“ACTGGGCTGGCGGACTTGTTGAATGGTCAA (double strand) [cdc25C-10/-7]”: binds more weakly ([1]; diminished EMSA competition, text prints -10/-1).

“ACTTGGCGGGAGATTTGAAT (double strand) [B-C4]”: binds ([2]; strong increase versus wild-type B-myb, variant of B-myb E2FBS-CHR); binds [4, 7]; binds [5, 7]. “ACTTGGCGGGAGATTTGAAT (double strand) [B-C4]”: binds [6, 7].

“GCTTGGCGGGAGGTTTGAAT (double strand) [C-B1,2]”: binds ([2]; unaffected versus cdc25C wild type, variant of cdc25C-wt CDE-CHR); binds [4, 8]; binds [5, 8]. “GCTTGGCGGGAGGTTTGAAT (double strand) [C-B1,2]”: binds [6, 8].

Where cells or extracts were used, other partners may take part. For some assays here: For at least one entry, the source does not settle the construct or the ends of the probe. For some assays here: Weaker means in comparison with the reference protein, sequence or condition of that experiment.
